The values that follow come from paper PMC5785501, “Crystal structure of lipid A disaccharide synthase LpxB from Escherichia coli” (Nature Communications, 2018).

No constants are given. Whether binding was seen depends on the method and setting. Binding seen in cells or lysates may run through a third protein. Some entries that bind do so weakly or less than the wild type. Sequences can lack the tags named with a protein.

The assay has as its target T1, 6His-LpxBR201A (co-expressed) (Escherichia coli) (UniProt P10441).
T1 sequence: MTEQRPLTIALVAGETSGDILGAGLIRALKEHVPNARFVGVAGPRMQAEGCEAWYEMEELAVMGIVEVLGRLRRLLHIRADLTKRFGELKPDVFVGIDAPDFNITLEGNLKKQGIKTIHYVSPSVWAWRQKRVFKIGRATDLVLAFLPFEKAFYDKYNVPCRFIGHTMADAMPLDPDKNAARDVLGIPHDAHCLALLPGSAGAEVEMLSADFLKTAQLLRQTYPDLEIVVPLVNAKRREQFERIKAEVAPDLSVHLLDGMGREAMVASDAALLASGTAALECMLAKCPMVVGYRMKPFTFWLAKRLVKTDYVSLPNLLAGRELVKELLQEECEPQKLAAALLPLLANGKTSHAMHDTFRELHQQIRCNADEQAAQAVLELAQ
The experiment in a line: pull-down; 6His-LpxBR201A co-expressed with untagged LpxBN316A in E. coli (pRSF-Duet-1), co-purified by the His tag in the presence of 0.2-2% Triton X-100.

B1: LpxBN316A (untagged, co-expressed) (enzyme, UniProt P10441 1-382)
chain: MTEQRPLTIALVAGETSGDILGAGLIRALKEHVPNARFVGVAGPRMQAEGCEAWYEMEELAVMGIVEVLGRLRRLLHIRADLTKRFGELKPDVFVGIDAPDFNITLEGNLKKQGIKTIHYVSPSVWAWRQKRVFKIGRATDLVLAFLPFEKAFYDKYNVPCRFIGHTMADAMPLDPDKNAARDVLGIPHDAHCLALLPGSRGAEVEMLSADFLKTAQLLRQTYPDLEIVVPLVNAKRREQFERIKAEVAPDLSVHLLDGMGREAMVASDAALLASGTAALECMLAKCPMVVGYRMKPFTFWLAKRLVKTDYVSLPALLAGRELVKELLQEECEPQKLAAALLPLLANGKTSHAMHDTFRELHQQIRCNADEQAAQAVLELAQ
As for B1, the binding entry was “binds”.
